PMC3819381
No constants are given. Whether binding was seen depends on the method and setting. Binding seen in cells or lysates may run through a third protein. Some results given as binding are weak or reduced against the parent protein; the word gives no strength. For some of these results: Where a sequence is shown, tags or fusion partners need not be part of it.

Amino acid sequences for entries named in this document (tags omitted).
UniProt P51532: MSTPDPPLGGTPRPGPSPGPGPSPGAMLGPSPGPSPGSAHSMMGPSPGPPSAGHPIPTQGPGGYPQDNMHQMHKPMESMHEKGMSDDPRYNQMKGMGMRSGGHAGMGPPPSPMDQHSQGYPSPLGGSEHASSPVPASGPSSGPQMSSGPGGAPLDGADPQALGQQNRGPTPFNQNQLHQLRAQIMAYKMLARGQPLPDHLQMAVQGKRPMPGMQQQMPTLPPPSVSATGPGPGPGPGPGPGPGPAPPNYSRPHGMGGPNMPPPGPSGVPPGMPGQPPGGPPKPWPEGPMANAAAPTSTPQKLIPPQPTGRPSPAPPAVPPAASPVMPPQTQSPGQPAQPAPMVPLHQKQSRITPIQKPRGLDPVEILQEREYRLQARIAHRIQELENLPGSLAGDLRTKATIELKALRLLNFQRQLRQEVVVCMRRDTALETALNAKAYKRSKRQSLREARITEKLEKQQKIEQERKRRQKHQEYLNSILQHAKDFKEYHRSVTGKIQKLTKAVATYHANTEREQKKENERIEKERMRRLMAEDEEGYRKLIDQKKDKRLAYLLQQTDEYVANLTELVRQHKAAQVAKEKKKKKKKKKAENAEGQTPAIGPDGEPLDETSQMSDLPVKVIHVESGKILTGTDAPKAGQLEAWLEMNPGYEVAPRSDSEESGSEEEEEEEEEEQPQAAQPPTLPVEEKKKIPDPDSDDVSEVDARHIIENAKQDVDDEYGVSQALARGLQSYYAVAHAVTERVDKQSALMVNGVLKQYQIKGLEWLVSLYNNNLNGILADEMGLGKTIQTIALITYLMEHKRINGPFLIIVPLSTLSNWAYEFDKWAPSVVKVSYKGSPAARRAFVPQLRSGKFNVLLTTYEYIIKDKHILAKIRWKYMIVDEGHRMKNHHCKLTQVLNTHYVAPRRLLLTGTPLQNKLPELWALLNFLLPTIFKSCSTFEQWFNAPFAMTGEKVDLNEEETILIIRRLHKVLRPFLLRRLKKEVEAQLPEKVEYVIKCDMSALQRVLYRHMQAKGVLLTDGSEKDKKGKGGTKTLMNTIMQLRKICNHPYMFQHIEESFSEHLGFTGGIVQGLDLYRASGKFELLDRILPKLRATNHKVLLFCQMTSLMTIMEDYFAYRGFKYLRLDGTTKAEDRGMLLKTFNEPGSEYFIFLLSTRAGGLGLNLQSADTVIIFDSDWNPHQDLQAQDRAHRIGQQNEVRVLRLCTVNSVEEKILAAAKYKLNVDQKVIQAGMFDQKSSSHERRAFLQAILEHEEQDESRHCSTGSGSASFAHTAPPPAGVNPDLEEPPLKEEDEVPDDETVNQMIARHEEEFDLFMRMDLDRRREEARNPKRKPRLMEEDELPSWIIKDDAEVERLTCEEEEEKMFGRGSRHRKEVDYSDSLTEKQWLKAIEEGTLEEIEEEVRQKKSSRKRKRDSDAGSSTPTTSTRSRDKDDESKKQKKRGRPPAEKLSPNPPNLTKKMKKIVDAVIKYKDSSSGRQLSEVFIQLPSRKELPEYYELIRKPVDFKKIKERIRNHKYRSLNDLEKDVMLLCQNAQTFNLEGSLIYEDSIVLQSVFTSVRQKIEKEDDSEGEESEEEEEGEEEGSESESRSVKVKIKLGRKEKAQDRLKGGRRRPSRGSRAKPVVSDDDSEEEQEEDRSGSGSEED
UniProt P16220: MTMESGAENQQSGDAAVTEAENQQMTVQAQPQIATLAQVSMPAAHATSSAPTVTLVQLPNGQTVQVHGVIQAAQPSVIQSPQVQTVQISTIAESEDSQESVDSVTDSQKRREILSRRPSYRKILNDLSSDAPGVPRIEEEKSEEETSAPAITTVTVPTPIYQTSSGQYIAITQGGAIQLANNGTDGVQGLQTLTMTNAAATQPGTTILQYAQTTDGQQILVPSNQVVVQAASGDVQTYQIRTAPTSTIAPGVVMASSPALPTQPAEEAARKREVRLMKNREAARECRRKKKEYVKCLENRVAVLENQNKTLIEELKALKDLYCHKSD
UniProt Q92769: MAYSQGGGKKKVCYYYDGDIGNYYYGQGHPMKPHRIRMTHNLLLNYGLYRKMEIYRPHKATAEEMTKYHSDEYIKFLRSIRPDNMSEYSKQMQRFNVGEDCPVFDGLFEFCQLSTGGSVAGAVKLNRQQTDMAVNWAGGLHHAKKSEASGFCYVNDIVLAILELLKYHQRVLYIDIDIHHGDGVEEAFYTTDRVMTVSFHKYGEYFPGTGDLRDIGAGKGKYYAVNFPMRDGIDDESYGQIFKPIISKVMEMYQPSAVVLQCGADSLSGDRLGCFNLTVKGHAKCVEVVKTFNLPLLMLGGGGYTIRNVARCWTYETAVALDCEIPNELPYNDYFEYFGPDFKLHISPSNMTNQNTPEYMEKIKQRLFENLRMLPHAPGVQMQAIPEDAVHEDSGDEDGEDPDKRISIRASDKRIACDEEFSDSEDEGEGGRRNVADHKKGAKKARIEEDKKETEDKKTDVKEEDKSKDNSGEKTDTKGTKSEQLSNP
UniProt P05412: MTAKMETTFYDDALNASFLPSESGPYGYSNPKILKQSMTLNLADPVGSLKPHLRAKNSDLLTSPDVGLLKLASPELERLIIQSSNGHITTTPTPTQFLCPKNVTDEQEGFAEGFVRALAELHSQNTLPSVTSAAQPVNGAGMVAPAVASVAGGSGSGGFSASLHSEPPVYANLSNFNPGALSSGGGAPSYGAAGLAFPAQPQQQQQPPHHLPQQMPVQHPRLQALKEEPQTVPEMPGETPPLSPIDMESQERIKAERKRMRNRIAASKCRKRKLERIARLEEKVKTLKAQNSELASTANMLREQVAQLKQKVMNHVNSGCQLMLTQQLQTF

Assays:
[1] = biological target: T1, ATF2 (human (endogenous in K562 and in CD34+-derived erythroid cells)) (UniProt P15336); assay: co-IP; 500 µg K562 nuclear extract, 2 µg ATF2 or Brg1 antibody (IgG control), protein A/G-agarose overnight, western blot
T1 sequence: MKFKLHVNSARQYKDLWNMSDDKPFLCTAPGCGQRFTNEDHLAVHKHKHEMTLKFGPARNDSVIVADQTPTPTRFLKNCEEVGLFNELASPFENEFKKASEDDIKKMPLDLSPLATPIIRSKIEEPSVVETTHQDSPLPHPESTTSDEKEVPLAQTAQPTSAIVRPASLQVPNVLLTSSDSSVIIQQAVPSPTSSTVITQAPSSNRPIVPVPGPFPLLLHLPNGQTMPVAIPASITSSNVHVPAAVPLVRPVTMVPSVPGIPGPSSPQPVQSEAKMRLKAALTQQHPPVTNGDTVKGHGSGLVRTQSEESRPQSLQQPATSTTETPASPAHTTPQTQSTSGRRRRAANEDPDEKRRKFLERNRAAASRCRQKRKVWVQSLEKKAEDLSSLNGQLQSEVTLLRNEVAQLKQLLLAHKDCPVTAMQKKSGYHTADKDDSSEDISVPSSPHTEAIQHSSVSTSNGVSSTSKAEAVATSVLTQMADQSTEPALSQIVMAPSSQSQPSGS

[2] = biological target: T2, His-FLAG-tagged ATF2 (human (cDNA from K562 cells)) (UniProt P15336); assay: co-sedimentation; 10-30% sucrose gradient in HEMG buffer, 4°C; 0.6 M NaCl heparin sepharose fractions dialysed against HEMG; fractions 10-17 by western blot; co-migration from 2 mDa peaking at 700 kDa
T2 sequence: T1 sequence

[3] = biological target: Brg1 (human (endogenous in K562 and in CD34+-derived erythroid cells)) (UniProt P51532); assay: co-IP; 500 µg K562 nuclear extract, 2 µg ATF2 or Brg1 antibody (IgG control), protein A/G-agarose overnight, western blot
[4] = biological target: CREB1 (human (endogenous in K562 and in CD34+-derived erythroid cells)) (UniProt P16220); assay: co-IP; lysates (50 µg) of CD34+-derived erythroid cells at day 3, 7, 14 and 21 of erythropoietin-induced differentiation, IP with anti-CREB1 antibody (IgG control), western blot

| binding [1] | binding [2] | binding [3] | binding [4] | Substance |
| --- | --- | --- | --- | --- |
| binds | binds |  |  | Brg1 (from UniProt P51532 1-1647) |
| binds | binds | binds | binds | HDAC2 (from UniProt Q92769 1-488) |
|  |  | binds |  | cJun (from UniProt P05412 1-331) |
